Results reported in PMC10943070.

Amino acid sequences for entries named in this document (tags omitted). A change or cut given only in a name is not applied to a line headed by its entry.
UniProt Q02487: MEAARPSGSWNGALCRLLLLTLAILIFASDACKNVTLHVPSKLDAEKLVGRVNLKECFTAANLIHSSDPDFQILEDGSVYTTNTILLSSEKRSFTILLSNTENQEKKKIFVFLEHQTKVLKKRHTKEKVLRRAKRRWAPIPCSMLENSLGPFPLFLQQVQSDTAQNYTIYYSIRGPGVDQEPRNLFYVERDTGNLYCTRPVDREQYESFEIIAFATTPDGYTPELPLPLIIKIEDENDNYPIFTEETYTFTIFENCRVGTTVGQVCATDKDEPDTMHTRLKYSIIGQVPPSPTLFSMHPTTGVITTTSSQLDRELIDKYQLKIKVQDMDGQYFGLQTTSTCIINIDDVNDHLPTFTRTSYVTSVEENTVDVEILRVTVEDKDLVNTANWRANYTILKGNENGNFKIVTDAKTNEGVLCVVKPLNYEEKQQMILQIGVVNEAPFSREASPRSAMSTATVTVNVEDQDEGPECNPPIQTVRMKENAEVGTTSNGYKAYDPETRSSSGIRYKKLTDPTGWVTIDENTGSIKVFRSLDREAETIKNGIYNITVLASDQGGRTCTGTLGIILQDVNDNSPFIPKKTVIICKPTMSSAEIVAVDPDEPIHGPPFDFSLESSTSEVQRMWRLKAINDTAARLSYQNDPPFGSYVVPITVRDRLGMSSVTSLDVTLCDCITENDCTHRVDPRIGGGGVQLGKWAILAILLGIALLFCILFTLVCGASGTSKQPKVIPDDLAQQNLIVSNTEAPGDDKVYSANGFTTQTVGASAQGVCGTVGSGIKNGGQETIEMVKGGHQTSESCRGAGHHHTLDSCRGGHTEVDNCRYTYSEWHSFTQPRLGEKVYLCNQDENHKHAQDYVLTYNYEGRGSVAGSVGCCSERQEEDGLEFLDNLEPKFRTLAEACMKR
UniProt A0A8I3MR05: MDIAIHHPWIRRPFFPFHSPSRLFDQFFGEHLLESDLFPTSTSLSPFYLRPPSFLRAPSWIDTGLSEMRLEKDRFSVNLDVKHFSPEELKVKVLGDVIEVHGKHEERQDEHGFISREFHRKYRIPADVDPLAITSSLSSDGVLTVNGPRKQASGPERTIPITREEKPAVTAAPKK
UniProt P42929: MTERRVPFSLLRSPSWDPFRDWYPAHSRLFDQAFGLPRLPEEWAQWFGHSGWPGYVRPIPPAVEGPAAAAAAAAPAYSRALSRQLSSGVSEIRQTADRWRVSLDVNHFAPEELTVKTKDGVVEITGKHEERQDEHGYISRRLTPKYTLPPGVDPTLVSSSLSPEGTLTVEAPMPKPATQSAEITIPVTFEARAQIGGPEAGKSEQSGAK
UniProt A0A8I3MM93: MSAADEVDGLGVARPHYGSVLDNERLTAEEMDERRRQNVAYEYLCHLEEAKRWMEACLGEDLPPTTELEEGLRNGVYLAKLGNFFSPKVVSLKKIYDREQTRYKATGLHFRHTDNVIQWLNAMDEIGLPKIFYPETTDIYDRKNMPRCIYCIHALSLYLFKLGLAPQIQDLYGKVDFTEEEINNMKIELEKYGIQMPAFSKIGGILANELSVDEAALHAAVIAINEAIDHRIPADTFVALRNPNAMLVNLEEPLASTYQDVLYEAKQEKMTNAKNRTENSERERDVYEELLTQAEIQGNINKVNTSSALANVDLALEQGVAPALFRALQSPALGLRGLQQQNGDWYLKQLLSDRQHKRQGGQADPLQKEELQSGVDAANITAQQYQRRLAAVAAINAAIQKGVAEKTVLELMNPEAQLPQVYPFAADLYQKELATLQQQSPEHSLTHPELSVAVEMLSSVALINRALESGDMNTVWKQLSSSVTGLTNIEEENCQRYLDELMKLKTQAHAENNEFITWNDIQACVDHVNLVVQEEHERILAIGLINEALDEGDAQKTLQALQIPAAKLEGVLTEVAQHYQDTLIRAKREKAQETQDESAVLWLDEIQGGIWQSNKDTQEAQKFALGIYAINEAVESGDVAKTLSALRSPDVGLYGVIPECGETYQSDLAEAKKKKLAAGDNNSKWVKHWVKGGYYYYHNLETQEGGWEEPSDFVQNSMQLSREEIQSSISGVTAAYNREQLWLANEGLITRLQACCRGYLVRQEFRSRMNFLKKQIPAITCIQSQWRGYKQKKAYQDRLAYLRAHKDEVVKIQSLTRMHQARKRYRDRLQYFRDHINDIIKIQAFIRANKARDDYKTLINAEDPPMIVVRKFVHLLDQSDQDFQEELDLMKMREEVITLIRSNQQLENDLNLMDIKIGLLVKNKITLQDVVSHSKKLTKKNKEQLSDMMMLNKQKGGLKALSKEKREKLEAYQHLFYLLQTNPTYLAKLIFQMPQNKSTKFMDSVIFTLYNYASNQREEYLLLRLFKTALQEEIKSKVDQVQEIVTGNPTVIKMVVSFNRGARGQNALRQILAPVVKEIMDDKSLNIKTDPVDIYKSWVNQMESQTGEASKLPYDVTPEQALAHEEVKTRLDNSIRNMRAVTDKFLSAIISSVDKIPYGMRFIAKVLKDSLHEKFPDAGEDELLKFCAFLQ
UniProt A0A8I3NAW5: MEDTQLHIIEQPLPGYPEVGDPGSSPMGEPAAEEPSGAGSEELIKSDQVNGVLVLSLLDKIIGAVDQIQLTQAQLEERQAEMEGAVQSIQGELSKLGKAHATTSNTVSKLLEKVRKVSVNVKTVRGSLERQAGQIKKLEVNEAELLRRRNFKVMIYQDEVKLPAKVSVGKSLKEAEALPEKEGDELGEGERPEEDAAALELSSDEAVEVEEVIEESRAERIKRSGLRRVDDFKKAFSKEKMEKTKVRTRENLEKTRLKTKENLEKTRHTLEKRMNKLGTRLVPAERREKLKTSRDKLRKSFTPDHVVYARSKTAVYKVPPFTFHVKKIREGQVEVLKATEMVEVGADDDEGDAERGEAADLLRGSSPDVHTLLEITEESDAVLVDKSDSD
UniProt A0A8I3N1D8: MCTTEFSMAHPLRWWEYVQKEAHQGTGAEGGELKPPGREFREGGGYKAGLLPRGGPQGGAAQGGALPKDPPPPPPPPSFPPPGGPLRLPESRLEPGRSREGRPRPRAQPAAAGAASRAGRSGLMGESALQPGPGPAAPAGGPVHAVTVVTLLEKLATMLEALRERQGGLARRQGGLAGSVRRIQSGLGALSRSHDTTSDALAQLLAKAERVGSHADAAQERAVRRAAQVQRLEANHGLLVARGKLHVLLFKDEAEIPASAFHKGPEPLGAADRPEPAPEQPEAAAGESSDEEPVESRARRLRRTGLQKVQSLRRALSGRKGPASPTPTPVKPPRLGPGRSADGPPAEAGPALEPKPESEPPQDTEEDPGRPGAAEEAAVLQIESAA
UniProt A0A8I3PHM6: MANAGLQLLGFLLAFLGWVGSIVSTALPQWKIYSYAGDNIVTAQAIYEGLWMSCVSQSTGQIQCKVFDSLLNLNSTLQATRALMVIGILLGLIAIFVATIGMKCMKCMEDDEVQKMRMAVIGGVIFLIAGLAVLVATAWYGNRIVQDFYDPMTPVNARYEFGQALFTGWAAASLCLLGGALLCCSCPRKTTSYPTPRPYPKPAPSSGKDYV
UniProt Q6YKA4: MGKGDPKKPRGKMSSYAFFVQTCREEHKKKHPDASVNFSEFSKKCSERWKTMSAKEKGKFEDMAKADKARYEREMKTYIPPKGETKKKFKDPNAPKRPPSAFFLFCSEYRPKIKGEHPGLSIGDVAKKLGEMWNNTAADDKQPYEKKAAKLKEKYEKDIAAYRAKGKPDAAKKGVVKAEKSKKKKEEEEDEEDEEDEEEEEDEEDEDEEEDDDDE
UniProt A0A8I3P9Q5: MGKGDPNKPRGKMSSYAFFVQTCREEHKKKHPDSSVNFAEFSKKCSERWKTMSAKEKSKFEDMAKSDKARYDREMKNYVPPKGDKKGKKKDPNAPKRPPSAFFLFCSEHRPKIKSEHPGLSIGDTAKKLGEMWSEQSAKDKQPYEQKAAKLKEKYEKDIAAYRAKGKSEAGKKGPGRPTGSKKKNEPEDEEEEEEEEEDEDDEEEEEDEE
UniProt A0A8I3NQ19: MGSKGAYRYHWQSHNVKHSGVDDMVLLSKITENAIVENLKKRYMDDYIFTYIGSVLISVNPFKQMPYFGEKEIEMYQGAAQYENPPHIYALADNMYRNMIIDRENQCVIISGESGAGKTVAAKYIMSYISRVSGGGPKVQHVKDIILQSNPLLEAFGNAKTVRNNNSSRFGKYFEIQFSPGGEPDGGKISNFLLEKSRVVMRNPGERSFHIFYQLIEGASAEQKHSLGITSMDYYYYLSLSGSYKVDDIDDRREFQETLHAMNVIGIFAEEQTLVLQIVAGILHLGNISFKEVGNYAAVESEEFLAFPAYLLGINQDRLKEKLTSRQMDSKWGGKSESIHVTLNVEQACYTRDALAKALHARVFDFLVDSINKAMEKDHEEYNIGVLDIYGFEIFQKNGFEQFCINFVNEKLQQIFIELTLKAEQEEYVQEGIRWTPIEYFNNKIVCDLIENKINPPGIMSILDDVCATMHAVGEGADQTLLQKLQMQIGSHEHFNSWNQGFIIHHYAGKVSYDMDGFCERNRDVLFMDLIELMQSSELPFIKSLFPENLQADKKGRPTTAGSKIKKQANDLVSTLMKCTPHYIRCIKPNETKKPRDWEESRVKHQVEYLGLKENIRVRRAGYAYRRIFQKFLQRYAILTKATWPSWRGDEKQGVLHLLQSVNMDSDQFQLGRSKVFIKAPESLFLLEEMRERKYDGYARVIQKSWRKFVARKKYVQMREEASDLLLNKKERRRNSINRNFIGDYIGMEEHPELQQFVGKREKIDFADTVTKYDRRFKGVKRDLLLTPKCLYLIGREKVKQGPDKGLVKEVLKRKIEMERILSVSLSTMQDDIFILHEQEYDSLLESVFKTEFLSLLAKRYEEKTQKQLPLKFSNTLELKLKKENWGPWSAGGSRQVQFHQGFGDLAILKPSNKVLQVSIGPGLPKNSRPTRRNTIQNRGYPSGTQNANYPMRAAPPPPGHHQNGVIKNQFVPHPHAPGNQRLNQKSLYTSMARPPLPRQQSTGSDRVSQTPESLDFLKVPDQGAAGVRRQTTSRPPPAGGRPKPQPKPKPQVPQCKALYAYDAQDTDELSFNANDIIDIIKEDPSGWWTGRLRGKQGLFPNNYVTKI
UniProt P60467: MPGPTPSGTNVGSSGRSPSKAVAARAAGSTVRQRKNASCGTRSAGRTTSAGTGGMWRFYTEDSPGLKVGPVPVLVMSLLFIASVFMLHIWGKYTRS

Legend:
myc-BirA-plakophilin 2a = target: T1, myc-BirA-plakophilin 2a (UniProt Q99959); test: proximity labelling; BioID: bait tagged with BirA(R118G) and myc, stably expressed in MDCK cells; confluent for 1 day (Ca^2+-dependent desmosomes) or 5 days (hyper-adhesive desmosomes), 100 μM biotin for the last 16 h; streptavidin beads, LC-MS/MS; SAINTexpress against BirA-myc control, BFDR ≤0.05
T1 sequence: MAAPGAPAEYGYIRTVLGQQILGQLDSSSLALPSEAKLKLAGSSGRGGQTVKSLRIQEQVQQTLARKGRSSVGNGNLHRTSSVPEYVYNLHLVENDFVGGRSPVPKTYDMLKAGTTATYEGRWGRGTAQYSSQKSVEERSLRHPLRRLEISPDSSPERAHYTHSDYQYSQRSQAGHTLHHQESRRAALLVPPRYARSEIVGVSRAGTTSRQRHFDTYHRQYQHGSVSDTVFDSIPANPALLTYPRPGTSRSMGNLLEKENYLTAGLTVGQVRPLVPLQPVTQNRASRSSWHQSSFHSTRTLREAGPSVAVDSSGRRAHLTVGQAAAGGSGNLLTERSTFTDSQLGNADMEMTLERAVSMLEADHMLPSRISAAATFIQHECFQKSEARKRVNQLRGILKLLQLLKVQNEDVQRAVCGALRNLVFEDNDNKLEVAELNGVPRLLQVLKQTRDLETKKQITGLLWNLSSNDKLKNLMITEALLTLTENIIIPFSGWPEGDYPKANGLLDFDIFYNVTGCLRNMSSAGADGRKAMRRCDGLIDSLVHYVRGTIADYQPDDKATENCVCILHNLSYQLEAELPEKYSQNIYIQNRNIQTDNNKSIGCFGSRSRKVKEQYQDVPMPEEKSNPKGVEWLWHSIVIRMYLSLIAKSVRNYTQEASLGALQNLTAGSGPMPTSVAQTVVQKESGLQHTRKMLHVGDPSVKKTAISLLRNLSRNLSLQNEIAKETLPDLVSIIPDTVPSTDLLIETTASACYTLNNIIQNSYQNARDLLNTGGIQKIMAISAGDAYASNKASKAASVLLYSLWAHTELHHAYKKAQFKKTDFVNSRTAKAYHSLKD

[1] = target: T2, plakoglobin tagged with BirA-myc (PG∗; merged data of myc-BirA-PG and PG-BirA-myc) (UniProt P14923); test: as above
T2 sequence: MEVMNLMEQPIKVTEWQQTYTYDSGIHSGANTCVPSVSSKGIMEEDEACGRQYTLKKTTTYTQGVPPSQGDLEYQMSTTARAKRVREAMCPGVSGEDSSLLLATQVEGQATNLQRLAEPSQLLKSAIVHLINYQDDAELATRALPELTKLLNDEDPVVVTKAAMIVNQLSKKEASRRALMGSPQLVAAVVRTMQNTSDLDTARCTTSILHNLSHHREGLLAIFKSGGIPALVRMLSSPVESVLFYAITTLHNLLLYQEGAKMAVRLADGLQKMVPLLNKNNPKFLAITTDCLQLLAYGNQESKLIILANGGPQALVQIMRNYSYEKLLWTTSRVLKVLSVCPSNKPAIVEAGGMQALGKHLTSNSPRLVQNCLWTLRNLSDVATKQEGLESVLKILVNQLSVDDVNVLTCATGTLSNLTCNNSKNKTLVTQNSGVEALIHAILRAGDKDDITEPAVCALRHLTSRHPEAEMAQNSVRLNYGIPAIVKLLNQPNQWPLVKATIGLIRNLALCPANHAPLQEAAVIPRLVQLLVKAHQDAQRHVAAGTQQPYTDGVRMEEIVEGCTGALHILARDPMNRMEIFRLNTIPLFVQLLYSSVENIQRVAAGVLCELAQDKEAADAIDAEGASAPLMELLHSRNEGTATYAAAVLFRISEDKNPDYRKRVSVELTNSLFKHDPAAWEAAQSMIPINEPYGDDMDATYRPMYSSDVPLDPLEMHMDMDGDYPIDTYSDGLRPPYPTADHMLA

desmocollin 2a-BirA-myc [2] = target: desmocollin 2a-BirA-myc (UniProt Q02487); test: condition: only Ca^2+-dependent condition (1 day confluent); proximity labelling; BioID as a1, only the cells confluent for 1 day (Ca^2+-dependent desmosomes)
desmocollin 2a-BirA-myc [3] = target: desmocollin 2a-BirA-myc (UniProt Q02487); test: proximity labelling; BioID: bait tagged with BirA(R118G) and myc, stably expressed in MDCK cells; confluent for 1 day (Ca^2+-dependent desmosomes) or 5 days (hyper-adhesive desmosomes), 100 μM biotin for the last 16 h; streptavidin beads, LC-MS/MS; SAINTexpress against BirA-myc control, BFDR ≤0.05
desmocollin 2a-BirA-myc [4] = target: desmocollin 2a-BirA-myc (UniProt Q02487); test: condition: only hyper-adhesive condition (5 days confluent); proximity labelling; BioID as a1, only the cells confluent for 5 days (hyper-adhesive desmosomes)

Substance | binding (myc-BirA-plakophilin 2a) | binding [1] | also measured
CRYAB (from UniProt A0A8I3MR05 1-175) | binds | – | –
Calsyntenin-1 (dog (endogenous in MDCK)) | – | binds | –
HSPB1 (from UniProt P42929 1-209) | binds | – | –
IQ calmodulin-binding motif containing GTPase-activating protein 1 (from UniProt A0A8I3MM93) | – | binds | –
KIAA1217 (dog (endogenous in MDCK)) | binds | binds | –
Lamin A/C (dog (endogenous in MDCK)) | no binding | no binding | –
adenomatous polyposis coli (APC) protein (dog (endogenous in MDCK)) | – | binds | –
afadin (dog (endogenous in MDCK)) | – | binds | –
ankyrin 3 (dog (endogenous in MDCK)) | – | binds | –
annexin A5 (dog (endogenous in MDCK)) | binds | binds | –
caveolae-associated protein 1 (from UniProt A0A8I3NAW5 1-390) | – | – | binding (desmocollin 2a-BirA-myc [2]): no binding; binding (desmocollin 2a-BirA-myc [3]): binds
caveolae-associated protein 3 (from UniProt A0A8I3N1D8 1-386) | – | – | binding (desmocollin 2a-BirA-myc [2]): no binding; binding (desmocollin 2a-BirA-myc [3]): binds
claudin 1 (from UniProt A0A8I3PHM6 1-211) | – | – | binding (desmocollin 2a-BirA-myc [4]): no binding; binding (desmocollin 2a-BirA-myc [3]): binds
desmoglein 2 (dog (endogenous in MDCK)) | binds | binds | –
erbin (dog (endogenous in MDCK)) | binds | binds | –
high mobility group protein 1 (from UniProt Q6YKA4 1-215) | binds | binds | binding (desmocollin 2a-BirA-myc [3]): binds
high mobility group protein 2 (from UniProt A0A8I3P9Q5 1-210) | binds | binds | binding (desmocollin 2a-BirA-myc [3]): binds
high mobility group protein 3 (dog (endogenous in MDCK)) | binds | binds | –
moesin (dog (endogenous in MDCK)) | – | binds | –
myosin 1B (dog (endogenous in MDCK)) | – | binds | –
myosin 1E (from UniProt A0A8I3NQ19 1-1108) | – | binds | –
nectin 2 (dog (endogenous in MDCK)) | – | binds | –
nectin 3 (dog (endogenous in MDCK)) | – | binds | –
p120-catenin (dog (endogenous in MDCK)) | binds | binds | –
plakophilin 3 (dog (endogenous in MDCK)) | binds | binds | –
plakophilin 4 (dog (endogenous in MDCK)) | binds | binds | –
sec61 translocon β (from UniProt P60467 1-96) | – | – | binding (desmocollin 2a-BirA-myc [4]): no binding; binding (desmocollin 2a-BirA-myc [3]): binds
α-catenin (dog (endogenous in MDCK)) | binds | binds | –

These are yes or no findings as the source states them, for the method shown. Binding seen in cells or lysates may run through a third protein. A yes stands for co-enrichment or nearness to the bait. Other partners may have been found. For some of these results: A no says only that the protein was not detected with the bait. For some of these results: Sequences can lack the tags named with a protein.
